Source: patent US20110028458A1, “INHIBITION OF CELL MIGRATION BY A FARNESYLATED DIBENZODIAZEPINONE” (THALLION PHARMACEUTICALS INC., priority 2008, published 2011)
For some assays here: At least one compound was matched to its structure with a doubt left. Some entries share one result that the patent states for a list of compounds.

Key:
ACAT = ACAT enzyme assay, [14C]cholesterol ester quantitation; type: biochemical, rat; settings: 10 μM
Excerpt: (§1) The procedures used were based on known assays: ACAT (from rat; Ref: Largis et al (1989), J. Lipid. Res., vol 30, 681-689), COX-2 (human; Ref: Riendeau et al (1997), Can. J. Physiol. Pharmacol., vol 75, 1088-1095 and Warner et al (1999), Pro. Natl. Acad Sci. USA, vol 96, 7563-7568), 5-LO (human; Ref: Carter et al (1991), J. Pharmacol. Exp. Ther., vol 256, no 3, 929-937, and Safayhi et al (2000), Planta Medica, vol 66, 110-113), PBR (from rat; Le Fur et al (1983), Life Sci. USA, vol 33, 449-457), CysLT1 (human; Martin et al (2001), Biochem. Pharmacol., vol 62, no 9, 1193-1200) and CBR (from rat; Damm et al (1978), Res. Comm. Chem. Pathol. Pharmacol., vol 22, 597-600 and Speth et al (1979), Life Sci., vol 24, 351-357).
Binding assays were done for each of Compounds 1-12 and 46 using ACAT, COX-2, 5-LO, PBR and CysLT1 enzymes. The procedures used are based on the respective references mentioned above and the conditions are summarized in Tables 1 (enzyme assays) and 2 (radioligand receptor assays).
(§2) Binding Assays were done at constant concentration of the compound, in 1% DMSO as vehicle, and are specified below each enzyme/receptor type in Table 3. Significance was obtained when a result was ≧50% binding or inhibition (underlined).

[1] = target: T1, peripheral benzodiazepine receptor (PBR) (Rattus norvegicus, UniProt P16257); assay: PBR radioligand binding assay, [3H]PK-11195, rat heart (MDS Pharma); settings: 0.3 nM [3H]-PK11195 displacement
T1 construct: CBR and PBR were obtained from rat brain and heart membrane-fractions, respectively; from tissue; host or cells: Wistar rat heart membrane fraction

[2] = target: central benzodiazepine receptor (CBR; GABAA); assay: CBR (GABAA) radioligand binding assay, [3H]flunitrazepam, rat brain
Excerpt: as §1, §2
As Compound 1 was isolated from structural prediction through genetic analysis and activity identified through in vitro cytotoxic assays, its molecular target(s) were unknown at the time of discovery. […] The effect of TLN-4601 on CBR (GABAA) and PBR was initially evaluated in a radioligand-binding assay at MDS Pharma Services (Taipei, Tawain). […]

[3] = Pharmacokinetic profiles in CD-1 mice; type: in vivo
PBR = target: T2, PBR (Rattus norvegicus, UniProt P16257); assay: In vivo 11C-PK11195 PET receptor occupancy, rat C6 orthotopic brain tumors; settings: bolus IV 30 mg/kg then CIV 5 mg/h/kg; mean±SEM; baseline 2.19±0.16
T2 construct: containing the enriched mitochondria membrane preparation (25 μg of protein); from tissue; host or cells: Sprague Dawley rat heart, enriched mitochondrial membrane preparation

[4] = tested on: EGF-induced phosphorylation of Raf-1 and ERK1/2; assay: Western blot of EGF-induced Raf-1 and ERK1/2 phosphorylation in human tumor cells; type: cell-based; settings: 10 μM
GTP-bound RAS = assay: RAS-GTP pull-down assay in MCF-7 cells; type: cell-based, human; settings: MCF-7, 6 h treatment, EGF 5 min
phospho-ERK = assay: ERK phosphorylation ELISA assay (FACE) in MCF-7 cells; type: cell-based, human; settings: 6 hours, then EGF 100 ng/mL for 5 min
[5] = tested on: U87 glioma cell migration; assay: Boyden chamber migration of U87 glioma cells (parental, EGFR-WT, EGFRvIII); type: cell-based, human; settings: 5 μM, 18 h
[6] = tested on: p-EGFR, Raf-1, p-ERK, ERK and AKT; assay: Western blot of RAS-MAPK pathway proteins in U87 glioma cells; type: cell-based, human; settings: 5 μM, 18 h
p-Bad = assay: Western blot of p-Bad (AKT signaling) in U87 glioma cells; type: cell-based, human; settings: increasing concentrations, 18 h
PARP = assay: Western blot of PARP cleavage in U87 glioma cells; type: cell-based, human; settings: 20 μM (U87 MG) or 30 μM (U87 EGFR-WT, U87 EGFRvIII)
[7] = tested on: Human brain microvascular endothelial cells (HBMEC); assay: Matrigel capillary-like structure formation by HBMEC; type: cell-based; settings: 0-10 μM, 24 hours; optimal effect at 10 μM
[8] = tested on: phosphorylation of Raf and Erk; assay: S1P- and LPA-mediated ERK and Raf phosphorylation in HBMEC; type: cell-based, human; settings: 5 μM for 18 hours
HBMEC = HBMEC migration in response to chemotactic stimuli, modified Boyden chambers; type: cell-based, human; settings: pre-treated cells, 6 hours migration

## CC(C)=CCC/C(C)=C/CC/C(C)=C/CN1C(=O)c2cccc(O)c2Nc2c(O)cc(O)cc21 [Compound 1, 10-farnesyl-4,6,8-trihydroxy-5,10-dihydrodibenzo[b,e][1,4]diazepin-11-one]
ACAT
  Percentage of inhibition or binding activity, ACAT: 90%
[1]
  binding affinity for the PBR: ~0.3 µM
[2]
  IC50: > 10 µM
[2]; 10 μM
  Percentage of inhibition or binding activity, CBR: 39%
[3]; intraperitoneal administration
  time plasma concentration maintained at therapeutically relevant levels: over 8 hours
PBR
  mean tumor binding potential (B.P.) of 11C-(R)-PK11195 after TLN-4601: 0.14±0.13
[4]
  amount of total Raf-1: decrease in the amount of total Raf-1
[4]; MCF-7, MDA-MB-231, U 87-MG, PC-3
  inhibition of EGF-induced phosphorylation of Raf-1 and ERK1/2: strong inhibition
GTP-bound RAS
  EGF activation of RAS (RAS-GTP): prevented EGF from activating RAS
phospho-ERK
  inhibition of phospho-ERK in the FACE ELISA assay: inhibit the RAS-MAPK signaling pathway
[5]
  basal and EGF-mediated cell migration: significantly inhibited
[6]
  AKT level: reduction in the cell survival Pi3K pathway enzyme AKT
  EGF induction of p-ERK: decreased EGF induction of p-ERK
  EGF stimulated EGFR phosphorylation: not affected
  total Raf-1: decrease of total Raf-1
p-Bad
  p-Bad level: dose-dependent decrease of p-Bad
PARP
  PARP cleavage: resulted in PARP cleavage
[7]
  tubulogenesis (capillary-like structure formation): reduction of tubulogenesis
[8]; 1 μM LPA
  LPA-mediated phosphorylation of Raf and Erk: remained unaffected
[8]; 1 μM S1P
  S1P-mediated phosphorylation of Raf and Erk: significantly reduced
HBMEC
  HBMEC migration induced by bFGF, VEGF, S1P, LPA, NSF, or HGF: significant reduction in HBMEC migration

## CC(C)=CCC/C(C)=C/CC/C(C)=C/CN1C(=O)c2cccc(O)c2N(C)c2c(O)cc(O)cc21 [Compound 2]
[3]; intraperitoneal administration
  time plasma concentration maintained at therapeutically relevant levels: over 8 hours
[3]; intravenous administration
  time plasma concentration maintained at therapeutically relevant levels: over 8 hours
